{"source": "ChEMBL document CHEMBL3098017", "about": "“Discovery and in Vivo Evaluation of Potent Dual CYP11B2 (Aldosterone Synthase) and CYP11B1 Inhibitors” (ACS Med Chem Lett, 2013)", "key": {"[1]": {"target": "T1, Cytochrome P450 11B1, mitochondrial (Rattus norvegicus, UniProt P15393)", "T1 sequence (P15393 whole entry)": "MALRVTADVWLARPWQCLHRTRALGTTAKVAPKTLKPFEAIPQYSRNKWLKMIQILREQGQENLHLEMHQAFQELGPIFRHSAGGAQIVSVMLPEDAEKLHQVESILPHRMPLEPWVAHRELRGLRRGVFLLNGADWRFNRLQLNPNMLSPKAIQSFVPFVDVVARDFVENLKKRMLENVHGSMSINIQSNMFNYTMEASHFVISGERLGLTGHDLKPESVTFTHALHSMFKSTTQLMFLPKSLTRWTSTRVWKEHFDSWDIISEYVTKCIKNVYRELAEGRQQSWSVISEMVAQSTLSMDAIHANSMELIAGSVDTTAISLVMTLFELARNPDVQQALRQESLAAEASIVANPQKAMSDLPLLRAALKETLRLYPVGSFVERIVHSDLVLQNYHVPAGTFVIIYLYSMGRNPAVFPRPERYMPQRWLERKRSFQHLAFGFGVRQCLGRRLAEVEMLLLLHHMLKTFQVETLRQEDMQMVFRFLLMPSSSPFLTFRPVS", "assay": "Inhibition of rat recombinant CYP11B1 using 11-deoxycortisol as substrate by cell-based assay", "outline": "(§1)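 Recombinant rat CYP11b2 and CYP11b1 prepared in the same way as the human enzymes; enzymatic activity inhibition, IC50.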"}, "[2]": {"target": "T2, Cytochrome P450 11B2, mitochondrial (Rattus norvegicus, UniProt P30099)", "T2 sequence (P30099 whole entry)": "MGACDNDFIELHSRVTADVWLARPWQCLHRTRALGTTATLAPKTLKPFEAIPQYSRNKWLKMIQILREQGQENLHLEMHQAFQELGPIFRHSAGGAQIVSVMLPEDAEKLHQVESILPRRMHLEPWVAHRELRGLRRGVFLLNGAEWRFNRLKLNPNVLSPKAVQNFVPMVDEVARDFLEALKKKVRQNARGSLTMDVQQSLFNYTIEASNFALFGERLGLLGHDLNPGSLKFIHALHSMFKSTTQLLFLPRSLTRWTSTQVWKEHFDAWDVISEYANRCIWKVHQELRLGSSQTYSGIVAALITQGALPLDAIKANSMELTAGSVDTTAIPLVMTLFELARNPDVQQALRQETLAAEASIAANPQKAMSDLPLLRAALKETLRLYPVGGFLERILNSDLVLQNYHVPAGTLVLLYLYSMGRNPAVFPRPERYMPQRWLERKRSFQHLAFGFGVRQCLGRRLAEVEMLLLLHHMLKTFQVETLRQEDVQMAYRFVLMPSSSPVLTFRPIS", "assay": "Inhibition of rat recombinant CYP11B2 using 11-deoxycorticosterone as substrate by cell-based assay", "outline": "as §1"}}}
{"smiles": "N#Cc1ccc([C@H]2CCCc3cncn32)cc1", "note": "[DEXFADROSTAT]", "values": [{"measurement": "IC50", "setting": "[1]", "value": 686, "unit": "nM"}, {"measurement": "IC50", "setting": "[2]", "value": 118, "unit": "nM"}]}
